Test results reported in US11441162B2, “Human gut microbiome-derived biosynthetic enzymes for production of fatty acid amides” (Massachusetts Institute of Technology, priority 2019, dated 2022).
At least one compound was matched to its structure with a doubt left.

Amino acid sequences for entries named in this document (tags omitted). A change or cut given only in a name is not applied to a line headed by its entry.
UniProt P32249, whole entry: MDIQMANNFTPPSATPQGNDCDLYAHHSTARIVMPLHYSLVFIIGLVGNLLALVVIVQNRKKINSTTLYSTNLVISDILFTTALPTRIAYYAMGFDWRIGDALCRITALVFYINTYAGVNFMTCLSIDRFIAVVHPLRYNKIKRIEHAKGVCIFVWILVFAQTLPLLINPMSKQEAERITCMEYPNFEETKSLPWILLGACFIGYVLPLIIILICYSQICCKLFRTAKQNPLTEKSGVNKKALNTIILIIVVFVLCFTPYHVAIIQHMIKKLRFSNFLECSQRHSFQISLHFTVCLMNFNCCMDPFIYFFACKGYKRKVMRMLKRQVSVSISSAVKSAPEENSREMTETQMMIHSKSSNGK
UniProt P51582: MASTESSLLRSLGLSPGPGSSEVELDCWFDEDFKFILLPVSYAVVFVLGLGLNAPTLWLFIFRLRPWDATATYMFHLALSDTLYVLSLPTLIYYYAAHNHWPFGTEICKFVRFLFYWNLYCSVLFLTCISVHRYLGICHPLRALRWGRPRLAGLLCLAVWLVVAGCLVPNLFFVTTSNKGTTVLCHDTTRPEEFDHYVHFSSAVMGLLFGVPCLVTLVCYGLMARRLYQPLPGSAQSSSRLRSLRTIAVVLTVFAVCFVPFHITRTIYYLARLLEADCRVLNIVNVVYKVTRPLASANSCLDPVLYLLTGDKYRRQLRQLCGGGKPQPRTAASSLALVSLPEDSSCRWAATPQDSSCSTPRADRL

Assays:
EBI2/GPR183 = EBI2/GPR183 (Homo sapiens, UniProt P32249); assay: Cell-based β-arrestin reporter assay (DiscoverX), EBI2 antagonist mode: panel at 10 uM and concentration-response; settings: compound at 10 uM
Protocol: (§1) FIGS. 31A-31H show GPCR activity assay of lauroyl tryptamine. a, Cell-based β-arrestin reporter assay (DiscoveRx) with a panel of 168 GPCRs with known ligands in agonist mode and antagonist mode, and also 73 orphan GPCRs in agonist mode at 10 uM. Agonist mode measures % activity of target GPCR by the compound, relative to the baseline value (0% activity) and maximum value with a known ligand, or twofold increase over baseline for orphan GPCR (100% activation). Antagonist mode measures % inhibition of target GPCR by the compound in the presence of a known ligand, relative to the value at the EC80 (0% inhibition) and basal value (100% inhibition). […] The production titer was determined to be 0.04 mg/L. f, Product titer of fatty acyl tryptamine from the in vivo extract of E. rectale in RCM, when fed with exogenous fatty acid (lauric acid, linoleic acid, oleic acid, docosahexaenoic acid, or α-linolenic acid). g, Mapping of human gut metatranscriptomic reads from subject subX316701492 (accession: SRX247340) onto a 80 kb region of the E. rectale genome centered on the FAA pathway (darker arrows, labeled “FAA”). […]
(§2) FAAs are known to modulate diverse biological functions by interacting with human GPCRs. […] The FAAs were analyzed for activity against a panel of known and orphan human GPCRs using the DiscoverX platform. […]

P2RY4 = P2RY4 (Homo sapiens, UniProt P51582); assay: Cell-based β-arrestin reporter assay (DiscoverX), P2RY4 antagonist mode: panel at 10 uM and concentration-response
Protocol: as §1, §2

[1] = tested on: serotonin receptors (HTRs); assay: Cell-based β-arrestin reporter GPCR panel (DiscoverX) at 10 uM, serotonin receptors; design: species or system human; settings: compound at 10 uM

Question: For `CCCCCCCCCCCC(=O)NCCc1c[nH]c2ccccc12` [lauroyl tryptamine], which “inhibition of EBI2/GPR183 in GPCR panel (in words)” value (EBI2/GPR183) is on record?
Answer: inhibition

Question: What about the “inhibition on P2RY4 (concentration-response, in words)” value (P2RY4; antagonist mode against UTP, at the highest tested concentration) of the same compound?
Answer: modest concentration-dependent inhibition

Question: And the “inhibition of P2RY4 in GPCR panel (in words)” value (P2RY4; antagonist mode, compound at 10 uM)?
Answer: inhibition

Question: What about the “activation of serotonin receptors (HTRs) in GPCR panel” value [1] of the same compound?
Answer: activate
